Source: article PMC5417508
These are yes or no findings as the source states them, for the method shown. Binding seen in cells or lysates may run through a third protein. Some results given as binding are weak or reduced against the parent protein; the word gives no strength.

Protein sequences, listed by entry. Tags and fused reporters are not part of them. Lines headed by an entry give the natural chain unless they say otherwise; changes in a name come on top. Chains listed by the source or under a name are the forms on record and can include a tag or linker.
UniProt P08588: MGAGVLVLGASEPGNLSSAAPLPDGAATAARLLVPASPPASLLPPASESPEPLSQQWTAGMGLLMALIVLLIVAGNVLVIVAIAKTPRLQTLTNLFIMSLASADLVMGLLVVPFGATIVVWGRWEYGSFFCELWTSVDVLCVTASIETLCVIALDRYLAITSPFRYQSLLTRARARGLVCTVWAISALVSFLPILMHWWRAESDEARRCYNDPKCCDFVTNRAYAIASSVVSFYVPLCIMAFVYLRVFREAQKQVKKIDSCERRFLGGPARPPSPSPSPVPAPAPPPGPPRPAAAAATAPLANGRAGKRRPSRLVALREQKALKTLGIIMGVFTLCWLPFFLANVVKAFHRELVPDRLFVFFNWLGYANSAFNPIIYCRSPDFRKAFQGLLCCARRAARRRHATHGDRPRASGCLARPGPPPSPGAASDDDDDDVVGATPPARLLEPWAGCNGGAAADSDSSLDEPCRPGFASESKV
ADRB1(Ala412), Cerulean-tagged (P08588, form named): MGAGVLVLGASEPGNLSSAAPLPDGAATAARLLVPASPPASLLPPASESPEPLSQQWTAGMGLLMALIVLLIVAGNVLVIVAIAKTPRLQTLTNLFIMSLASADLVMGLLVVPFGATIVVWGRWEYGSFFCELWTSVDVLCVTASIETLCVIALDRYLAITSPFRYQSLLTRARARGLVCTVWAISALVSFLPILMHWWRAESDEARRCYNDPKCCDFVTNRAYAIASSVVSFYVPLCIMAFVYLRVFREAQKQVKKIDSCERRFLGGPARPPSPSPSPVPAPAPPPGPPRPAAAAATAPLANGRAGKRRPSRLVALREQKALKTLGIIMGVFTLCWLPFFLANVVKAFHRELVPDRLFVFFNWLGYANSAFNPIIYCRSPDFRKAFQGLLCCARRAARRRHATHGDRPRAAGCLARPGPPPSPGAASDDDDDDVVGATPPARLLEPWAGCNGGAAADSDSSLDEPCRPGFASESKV
ADRB1 Δproximal C-terminus, Cerulean-tagged (P08588, form named): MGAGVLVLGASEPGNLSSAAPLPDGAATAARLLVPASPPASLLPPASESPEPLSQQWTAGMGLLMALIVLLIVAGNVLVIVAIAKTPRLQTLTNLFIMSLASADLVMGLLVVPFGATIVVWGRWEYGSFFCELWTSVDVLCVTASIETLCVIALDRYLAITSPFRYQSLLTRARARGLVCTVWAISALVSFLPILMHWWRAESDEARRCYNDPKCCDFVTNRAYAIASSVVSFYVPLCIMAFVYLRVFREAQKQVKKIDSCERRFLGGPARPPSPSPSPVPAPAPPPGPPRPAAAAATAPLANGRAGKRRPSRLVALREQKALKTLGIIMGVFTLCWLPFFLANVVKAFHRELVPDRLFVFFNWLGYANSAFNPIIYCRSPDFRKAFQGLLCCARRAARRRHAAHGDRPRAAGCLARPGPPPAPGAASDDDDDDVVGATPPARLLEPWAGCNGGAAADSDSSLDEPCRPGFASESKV
ADRB1(Ala473/Ala475), Cerulean-tagged (P08588, form named): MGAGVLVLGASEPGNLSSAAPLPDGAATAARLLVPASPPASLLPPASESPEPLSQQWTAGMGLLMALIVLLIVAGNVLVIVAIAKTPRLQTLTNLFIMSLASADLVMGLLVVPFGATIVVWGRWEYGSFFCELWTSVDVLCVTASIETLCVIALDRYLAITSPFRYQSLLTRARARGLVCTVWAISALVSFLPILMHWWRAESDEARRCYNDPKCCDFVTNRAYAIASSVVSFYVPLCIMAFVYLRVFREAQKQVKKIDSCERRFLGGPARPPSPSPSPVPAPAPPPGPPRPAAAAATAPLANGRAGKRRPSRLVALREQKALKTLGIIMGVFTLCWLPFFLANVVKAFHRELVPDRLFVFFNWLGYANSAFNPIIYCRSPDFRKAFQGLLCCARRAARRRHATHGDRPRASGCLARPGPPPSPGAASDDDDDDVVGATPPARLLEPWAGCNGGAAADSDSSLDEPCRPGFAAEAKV
ADRB1Δ3rdloop^a (ADRB1(Ala260)), Cerulean-tagged (P08588, form named): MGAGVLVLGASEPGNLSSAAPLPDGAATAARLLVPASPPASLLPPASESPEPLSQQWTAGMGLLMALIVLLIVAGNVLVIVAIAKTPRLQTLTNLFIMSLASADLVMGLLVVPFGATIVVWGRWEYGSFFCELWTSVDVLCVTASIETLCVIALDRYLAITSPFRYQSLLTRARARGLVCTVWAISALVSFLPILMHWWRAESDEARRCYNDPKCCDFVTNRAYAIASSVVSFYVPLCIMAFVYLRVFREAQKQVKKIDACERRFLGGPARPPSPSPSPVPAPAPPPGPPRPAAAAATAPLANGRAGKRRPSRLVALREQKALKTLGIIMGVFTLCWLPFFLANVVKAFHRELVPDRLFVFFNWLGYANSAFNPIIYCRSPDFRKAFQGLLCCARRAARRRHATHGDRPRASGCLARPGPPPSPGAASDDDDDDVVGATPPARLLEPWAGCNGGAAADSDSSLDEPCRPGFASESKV
ADRB1 with alanine substitutions in the middle part of the C-terminus, Cerulean-tagged (P08588, form named): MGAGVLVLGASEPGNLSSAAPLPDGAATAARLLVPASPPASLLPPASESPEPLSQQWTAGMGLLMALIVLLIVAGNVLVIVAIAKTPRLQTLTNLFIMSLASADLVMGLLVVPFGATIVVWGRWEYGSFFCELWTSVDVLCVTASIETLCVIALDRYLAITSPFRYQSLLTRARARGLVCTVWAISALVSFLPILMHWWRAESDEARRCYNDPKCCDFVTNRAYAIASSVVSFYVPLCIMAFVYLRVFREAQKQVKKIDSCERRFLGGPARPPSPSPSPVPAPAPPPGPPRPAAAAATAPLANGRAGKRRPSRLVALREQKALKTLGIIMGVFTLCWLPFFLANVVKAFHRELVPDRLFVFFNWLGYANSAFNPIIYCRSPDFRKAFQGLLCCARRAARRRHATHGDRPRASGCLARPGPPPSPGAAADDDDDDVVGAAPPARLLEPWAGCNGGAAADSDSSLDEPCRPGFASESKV

How the values were obtained:
Experiment in all cases: FRET or BRET; receptor-arrestin FRET in single living HEK293 cells co-transfected with ADRB1-Cer constructs and YFP-ARRB2; superfused with FRET buffer (137 mM NaCl, 4.5 mM KCl, 10 mM HEPES, 2 mM CaCl2, 2 mM MgCl2, pH 7.4) or 10 μM norepinephrine, room temperature; YFP/Cer ratio; also 0.1 μM and 1 μM norepinephrine (S3 Fig)
[1] = molecular target: ADRB1(Ala412), Cerulean-tagged (human) (UniProt P08588)
[2] = molecular target: ADRB1 Δproximal C-terminus, Cerulean-tagged (human) (UniProt P08588)
[3] = molecular target: ADRB1(Ala473/Ala475), Cerulean-tagged (human) (UniProt P08588)
[4] = molecular target: ADRB1Δ3rdloop^a (ADRB1(Ala260)), Cerulean-tagged (human) (UniProt P08588)
[5] = molecular target: ADRB1 with alanine substitutions in the middle part of the C-terminus, Cerulean-tagged (human) (UniProt P08588)
[6] = molecular target: human β1-adrenoceptor (ADRB1), wild type, Cerulean-tagged (human) (UniProt P08588)

Measured: binding

YFP-β-arrestin2 (from UniProt P32121 1-409)
binds: [1] | [2] | [3] | [4] | [5] | [6]
